# Measured values: the supplement of paper PMC12823440, “Inhibitors supercharge kinase turnover through native proteolytic circuits” (Nature, 2025)
# By UniProt entry, the sequences of proteins in these tests, tags left out. Where a name states a change or a piece, a line headed by the entry shows the natural chain unless it says otherwise.
# UniProt O75460: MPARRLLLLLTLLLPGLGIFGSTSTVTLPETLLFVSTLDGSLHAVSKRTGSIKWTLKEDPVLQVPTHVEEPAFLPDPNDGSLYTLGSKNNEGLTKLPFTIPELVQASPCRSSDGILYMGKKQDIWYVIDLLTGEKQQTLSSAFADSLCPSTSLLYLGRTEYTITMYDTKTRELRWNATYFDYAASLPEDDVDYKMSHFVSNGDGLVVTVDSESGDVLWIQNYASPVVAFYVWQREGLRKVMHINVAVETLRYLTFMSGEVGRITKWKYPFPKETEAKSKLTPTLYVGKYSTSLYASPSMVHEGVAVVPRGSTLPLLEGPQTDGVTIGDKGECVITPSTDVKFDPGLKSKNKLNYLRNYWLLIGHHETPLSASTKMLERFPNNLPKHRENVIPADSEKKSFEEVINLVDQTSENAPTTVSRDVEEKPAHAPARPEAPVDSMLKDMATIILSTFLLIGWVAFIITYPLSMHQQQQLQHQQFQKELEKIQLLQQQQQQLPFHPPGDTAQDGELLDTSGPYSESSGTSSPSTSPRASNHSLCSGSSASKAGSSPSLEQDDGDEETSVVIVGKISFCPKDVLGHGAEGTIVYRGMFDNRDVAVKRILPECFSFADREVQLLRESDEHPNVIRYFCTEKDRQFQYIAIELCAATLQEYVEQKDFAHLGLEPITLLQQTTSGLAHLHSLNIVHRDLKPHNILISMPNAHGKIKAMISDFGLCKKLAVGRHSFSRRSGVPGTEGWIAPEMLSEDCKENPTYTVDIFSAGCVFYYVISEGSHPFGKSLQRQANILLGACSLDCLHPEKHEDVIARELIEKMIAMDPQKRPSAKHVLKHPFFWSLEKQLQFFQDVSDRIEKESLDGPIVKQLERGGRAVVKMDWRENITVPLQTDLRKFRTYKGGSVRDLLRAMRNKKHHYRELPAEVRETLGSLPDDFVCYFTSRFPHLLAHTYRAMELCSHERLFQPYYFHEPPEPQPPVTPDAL
# Structures can show the parent of a compound that is named as a salt. Some of the results follow. The calls rarely recur for the same compound in another form.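 In K562 cells expressing nanoluciferase-fused kinases, luminescence was recorded at 4 h intervals between 2 and 18 h, normalized as percent of control with DMSO at 100% and a positive control at 0%. A significant (2 sigma) signal drop marks a time point as decreased. The authors' rule for a hit is not shown and takes in more than the number of time points.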
# Biological target: ERN1 (UniProt O75460)
# Experiment: kinase-Nluc reporter destabilization hit call (1 = scored as downregulated) (binary); higher = compound decreases kinase abundance
# Details: K562; 2-18 h
row,Compound,kinase-Nluc reporter destabilization hit call
1,CC1=C[C@]23C(=O)[C@@H](C=C(CO)[C@@H](O)[C@]2(O)[C@H]1O)[C@H]1[C@@H](C[C@H]3C)C1(C)C [Ingenol] (10 µM),inactive: 0
2,C=C[C@H]1CN2CC[C@]3(C(=O)Nc4ccccc43)[C@@H]2C[C@@H]1/C(=C\OC)C(=O)OC [Corynoxeine] (2 µM),inactive: 0
3,O=C(O)c1sc2cc(Cl)ccc2c1Cl (10 µM),inactive: 0
4,C[C@H]1CC[C@]2(NC1)O[C@H]1C[C@H]3[C@@H]4CC[C@H]5C[C@@H](O)CC[C@]5(C)[C@H]4CC[C@]3(C)[C@H]1[C@@H]2C [Tomatidine (hydrochloride)] (10 µM),inactive: 0
5,O=C1C=CC[C@@H]2[C@H]3CCCN4CCC[C@@H](CN12)[C@@H]34 [Sophocarpine (monohydrate)] (2.5 µM),inactive: 0
6,Cc1n[nH]cc1-c1cc2nc([C@@H]3CC4CCN3CC4)[nH]c(=O)c2s1 [Simurosertib] (2.5 µM),inactive: 0
7,O=C(N[C@@H](COc1ccc2[nH]c(=O)[nH]c2c1)c1ccccc1)c1cccn(Cc2ccc(F)c(F)c2)c1=O (2.5 µM),inactive: 0
8,O=C(/C=C/c1ccccc1)OC[C@H]1O[C@@H](O[C@@H]2OC=C[C@H]3[C@H](O)[C@@H]4O[C@]4(CO)[C@@H]23)[C@H](O)[C@@H](O)[C@@H]1O [Picroside I] (10 µM),inactive: 0
9,C[C@@H]1CC[C@H]2[C@@H](C)C(=O)O[C@@H]3O[C@@]4(C)CC[C@@H]1[C@]32OO4 [Artemisinin] (10 µM),active: 1
10,N#CC(C#N)=Cc1ccc([N+](=O)[O-])c(O)c1 (10 µM),inactive: 0
11,C[C@H](CCC(=O)O)C[C@H](C)C[C@H](C)C(=O)/C=C(\O)[C@H](C)C[C@H](C)C/C=C/[C@@H](C)[C@@H](O)[C@@H](C)[C@@H](O)C[C@@H]1CC[C@@](C)([C@H]2CC[C@@](C)([C@@H](C)O)O2)O1 [Ionomycin (calcium)] (2.5 µM),inactive: 0
12,CC1C(=O)OC2C(O)C34C5OC(=O)C3(OC3OC(=O)C(O)C34C(C(C)(C)C)C5O)C12O (stereo not drawn) [Ginkgolide C] (10 µM),inactive: 0
13,Cn1cc(C2=C(c3cn(C4CCN(Cc5ccccn5)CC4)c4ccccc34)C(=O)NC2=O)c2ccccc21 [Enzastaurin] (10 µM),inactive: 0
14,O=c1[nH]c2ccccc2n1C1CCN(Cc2ccc(-c3[nH]c4cc5ncnc5cc4nc3-c3ccccc3)cc2)CC1 [AKT inhibitor VIII] (2.5 µM),inactive: 0
15,CCN1CCN(C(=O)Cc2ccc(Nc3ncc(F)c(Nc4ccc(C(=O)Nc5ccccc5Cl)cc4)n3)cc2)CC1 (2.5 µM),inactive: 0
16,C=CC(=O)N[C@H]1C=C(C)c2c(-c3cnc4ccccc4c3)c3c(N)ncnc3n2C1 (10 µM),inactive: 0
17,CC(C)(C)c1cc(C=C(C#N)C#N)cc(Br)c1O (2.5 µM),inactive: 0
18,CCCCNc1nc(N)c2[nH]c(=O)n(Cc3ccc(C)nc3)c2n1 (10 µM),inactive: 0
19,C=CC(=O)Nc1ccc2[nH]c(=O)n(C3CCN(Cc4ccc(-c5nc6cc[nH]c(=O)c6cc5-c5ccccc5)cc4)CC3)c2c1 [Borussertib] (10 µM),inactive: 0
20,COc1ccc(N(C(=O)Oc2c(C)cccc2C)c2ccnc(Nc3ccc(N4CCN(C)CC4)cc3)n2)c(OC)c1 (2.5 µM),inactive: 0
21,COc1ccc2c(c1)[nH]c1c(C)nccc12 [Harmine] (10 µM),inactive: 0
22,O=c1cc(O)c2ccccc2o1 [4-Hydroxycoumarin] (10 µM),inactive: 0
23,CC(=O)c1c(O)c(C)c(O)c(Cc2c(O)c3c(c(C(=O)/C=C/c4ccccc4)c2O)OC(C)(C)C=C3)c1O [Rottlerin] (2 µM),inactive: 0
24,N#CC(C#N)=Cc1ccc(O)c(O)c1 [Tyrphostin 23] (10 µM),inactive: 0
25,C/C(O)=C(\C#N)C(=O)Nc1cc(Br)ccc1Br (10 µM),inactive: 0
26,Cc1ccccc1-n1c(Cn2ncc3c(N)ncnc32)nc2cccc(C)c2c1=O (10 µM),inactive: 0
27,COc1cc2c(cc1F)C(c1ccccc1Cl)=Nc1c(n[nH]c1C)N2 (0.5 µM),inactive: 0
28,O=[N+]([O-])/C=C/c1ccc2c(c1)OCO2 (2.5 µM),inactive: 0

# Copied from the listing, 2 compounds:
row,Compound,kinase-Nluc reporter destabilization hit call
10,N#CC(C#N)=Cc1ccc([N+](=O)[O-])c(O)c1 (10 µM),inactive: 0
11,C[C@H](CCC(=O)O)C[C@H](C)C[C@H](C)C(=O)/C=C(\O)[C@H](C)C[C@H](C)C/C=C/[C@@H](C)[C@@H](O)[C@@H](C)[C@@H](O)C[C@@H]1CC[C@@](C)([C@H]2CC[C@@](C)([C@@H](C)O)O2)O1 [Ionomycin (calcium)] (2.5 µM),inactive: 0
